Where a name gives a salt, the structure may show the parent alone. The list shows a part of the results. This data set is noisy: repeats of one test often differ as much as different tests do.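 Cells: ReNCell VM human fetal ventral-midbrain neural progenitors, differentiated mitogen-free. Blinded raters compared doublecortin-stained (early neurons) or tyrosine hydroxylase-stained (dopaminergic neurons) images with untreated wells, where 0 means no change. After repeats and both raters were averaged, compounds scoring 2 or above became hits for retesting.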
Legend:
ReNCell VM [1] = test: neuronal differentiation score (DCX+ cell fraction vs untreated, manual image score) (score (-3 to 3)); higher = more neuronal differentiation; conditions: 2 uM, 2 weeks
ReNCell VM [2] = test: dopaminergic neuron differentiation score (TH+ cell fraction vs untreated, manual image score) (score (0 to 3)); higher = more TH+ dopaminergic neuron differentiation; conditions: 2 uM, 4 weeks, BDNF 10 ng/ml + GDNF 10 ng/ml

`O=C(Nc1cc(C(F)(F)F)cc(C(F)(F)F)c1)c1cc(Cl)ccc1O` was tested, and the neuronal differentiation score (ReNCell VM [1]; library: Tocriscreen) was inactive: 0 and the “dopaminergic neuron differentiation score” value (ReNCell VM [2]; library: Tocriscreen) was inactive: 0.
With `CN(C)CCOC(c1ccc(Cl)cc1)c1ccccn1` (centres undefined) [Carbinoxamine maleate salt] the neuronal differentiation score (ReNCell VM [1]; library: Prestwick) was inactive: 0 and the “dopaminergic neuron differentiation score” value (ReNCell VM [2]; library: Prestwick) was inactive: 0.
In the case of `COc1cc(CC(=O)O)ccc1O` [4-Hydroxy-3-methoxyphenylacetic acid], the neuronal differentiation score (ReNCell VM [1]; library: LOPAC) is reported as inactive: 0 and the “dopaminergic neuron differentiation score” value (ReNCell VM [2]; library: LOPAC) is reported as inactive: 0.
For `NC(=O)CC[C@H](N)C(=O)O`, the neuronal differentiation score (ReNCell VM [1]; library: Spectrum) was inactive: 0 and the “dopaminergic neuron differentiation score” value (ReNCell VM [2]; library: Spectrum) was inactive: 0.
In the case of `CN[C@@H]1[C@H](O)[C@H](NC)[C@H]2O[C@@]3(O)C(=O)C[C@@H](C)O[C@H]3O[C@@H]2[C@H]1O` [spectinomycin], the neuronal differentiation score (ReNCell VM [1]; library: Natural) is reported as inactive: 0 and the “dopaminergic neuron differentiation score” value (ReNCell VM [2]; library: Natural) is reported as inactive: 0.
For `OCCc1ccccc1`, the neuronal differentiation score (ReNCell VM [1]; library: Spectrum) was inactive: 0 and the “dopaminergic neuron differentiation score” value (ReNCell VM [2]; library: Spectrum) was inactive: 0.
With `Cc1ccc(S(=O)(=O)NC(=O)NN2CC3CCCC3C2)cc1` (centres undefined) the neuronal differentiation score (ReNCell VM [1]; library: Spectrum) was inactive: 0 and the “dopaminergic neuron differentiation score” value (ReNCell VM [2]; library: Spectrum) was inactive: 1.
In the case of `N[C@H](C(=O)O)c1cc(O)cc(O)c1` [(S)-3,5-Dihydroxyphenylglycine], the neuronal differentiation score (ReNCell VM [1]; library: LOPAC) is reported as inactive: 0 and the “dopaminergic neuron differentiation score” value (ReNCell VM [2]; library: LOPAC) is reported as inactive: 0.
`Cc1cc2c3c(cc4cccc(n1)c42)C(=O)C=CC=3` [2-methyl-naphtho[1,2,3-de]quinolin-8-one] was tested, and the neuronal differentiation score (ReNCell VM [1]; library: Natural) was inactive: 0 and the “dopaminergic neuron differentiation score” value (ReNCell VM [2]; library: Natural) was inactive: 0.
With `CC(C)NCC(O)COc1ccc(CC(N)=O)cc1` (racemic) [(RS)-Atenolol] the neuronal differentiation score (ReNCell VM [1]; library: Tocriscreen) was inactive: 0 and the “dopaminergic neuron differentiation score” value (ReNCell VM [2]; library: Tocriscreen) was inactive: 0.
In the case of `C[N+]1(C)CCCC1C(=O)O` (centres undefined) [Stachydrine hydrochloride], the neuronal differentiation score (ReNCell VM [1]; library: Phytochemical) is reported as inactive: 0 and the “dopaminergic neuron differentiation score” value (ReNCell VM [2]; library: Phytochemical) is reported as inactive: 0.
With `COc1ccc(-n2nc(CCC(=O)N(C)O)cc2-c2ccc(Cl)cc2)cc1` the neuronal differentiation score (ReNCell VM [1]; library: Spectrum) was inactive: 0 and the “dopaminergic neuron differentiation score” value (ReNCell VM [2]; library: Spectrum) was inactive: 0.

Source: the supplement of paper PMC4635364
